This note sets out measurements from publication PMC4675558.

Positions count from the first letter of the chain named. Results are given in words; binding and its absence hold for the method and conditions named. In cells and extracts the contact can be indirect. Binding calls can cover weak binding; strength is not graded here. Where a sequence is shown, tags or fusion partners need not be part of it.

In test [1] the target is T1, (MBP)-Met30(1-186) M178E/I179E (S. cerevisiae) (UniProt P39014).
T1 sequence: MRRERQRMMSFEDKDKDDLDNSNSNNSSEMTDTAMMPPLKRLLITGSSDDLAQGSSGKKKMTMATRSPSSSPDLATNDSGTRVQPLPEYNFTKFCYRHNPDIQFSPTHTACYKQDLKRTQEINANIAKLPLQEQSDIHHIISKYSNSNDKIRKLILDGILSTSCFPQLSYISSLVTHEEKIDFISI
Description: pull-down; MBP-tagged proteins on amylose resin incubated with 3 mg of bacterial lysate expressing Cdc53(267-851)/GST-Rbx1, 2 h at 4°C, recombinant protein buffer; detected with anti-Cdc53 antibodies; only the target purified.

Test [2] has as its target T2, (MBP)-Met30(1-186) (S. cerevisiae) (UniProt P39014).
T2 sequence: T1 sequence with E178M, E179I
The description is as above.

In the case of “Cdc53(267-851)/GST-Rbx1 complex expressed in bacteria (S. cerevisiae)”, the binding result in test [1] and in test [2] was “binds” each time.
